Measured values taken from patent US20210309631A1, “SALT OF CYCLOHEXANE DERIVATIVE” (priority 2018, published 2021).
This continues a long series; more values of the same kind are listed elsewhere.

Assay: In vivo individual difference analysis: individual plasma concentration versus time in rats (Example 8)
Set-up: species or system SD rats
Details: intragastric 1 mg/kg
Protocol: Compound of Formula I and salts thereof (sulfate, hydrochloride salt, phosphate, maleate), supplied by Shanghai Jingxin Biopharmaceutical Co., Ltd. • Strain: SD rats; Gender: male; Body weight: about 250 grams; Source: shanghai Jiesijie Experimental Animal Co., Ltd Route: single intragastric administration; Capacity: measured in 10 mL/kg body weight Preparation: weighing appropriate amount of the free base or salt of the compound of Formula I, adding a small amount of 0.5% CMC-Na to grind, adding 0.5% CMC-Na to the volume. The concentration is measured as the base. 20 SD rats were divided into 5 groups with 4 rats in each group, fasted for 12 h and drank freely before administration. […] The blood was anticoagulated with 1% heparin, the plasma was separated by 8000 rpm centrifugation for 4 min and stored at -40° C. for testing. LC-MS/MS Method. Pharmacokinetic parameters after administration in rats were calculated using a non-compartmental model of DAS 2.0 software.

With `CN(C)C(=O)N[C@H]1CC[C@H](CCN2CCN(c3cccc4ccsc34)CC2)CC1.O=C(O)/C=C\C(=O)O` [Example 5, N′-[trans-4-[2-[7-(benzo[b]thiophene)-7-piperazinyl]ethyl]cyclohexyl]-N,N-dimethylurea] the “Plasma Concentrations of Compound of Formula I” value (shortened to “Plasma Concentrations”) (0 h after administration, Mean ± SD) was 0.000 ± 0.000 ng/mL, the “Plasma Concentrations” value (0 h after administration, rat 1♂) was 0 ng/mL and the “Plasma Concentrations” value (0 h after administration, rat 2♂) was 0 ng/mL. The “Plasma Concentrations” value (0 h after administration, rat 3♂) was 0 ng/mL, the “Plasma Concentrations” value (0 h after administration, rat 4♂) was 0 ng/mL and the “Plasma Concentrations” value (5 min after administration, Mean ± SD) was 0.796 ± 0.244 ng/mL. The “Plasma Concentrations” value (5 min after administration, rat 1♂) was 1.15 ng/mL, the “Plasma Concentrations” value (5 min after administration, rat 2♂) was 0.643 ng/mL and the “Plasma Concentrations” value (5 min after administration, rat 3♂) was 0.768 ng/mL. For the same compound, the “Plasma Concentrations” value (5 min after administration, rat 4♂) was 0.624 ng/mL, the “Plasma Concentrations” value (0.167 h after administration, Mean ± SD) was 13.8 ± 4.14 ng/mL and the “Plasma Concentrations” value (0.167 h after administration, rat 1♂) was 14.5 ng/mL. For the same compound, the “Plasma Concentrations” value (0.167 h after administration, rat 2♂) was 17.9 ng/mL, the “Plasma Concentrations” value (0.167 h after administration, rat 3♂) was 8.05 ng/mL and the “Plasma Concentrations” value (0.167 h after administration, rat 4♂) was 14.8 ng/mL. The “Plasma Concentrations” value (0.333 h after administration, Mean ± SD) was 40.4 ± 2.89 ng/mL, the “Plasma Concentrations” value (0.333 h after administration, rat 1♂) was 41.2 ng/mL and the “Plasma Concentrations” value (0.333 h after administration, rat 2♂) was 43.9 ng/mL. For the same compound, the “Plasma Concentrations” value (0.333 h after administration, rat 3♂) was 37.1 ng/mL, the “Plasma Concentrations” value (0.333 h after administration, rat 4♂) was 39.3 ng/mL and the “Plasma Concentrations” value (0.5 h after administration, Mean ± SD) was 44.8 ± 3.38 ng/mL. For the same compound, the “Plasma Concentrations” value (0.5 h after administration, rat 1♂) was 47.4 ng/mL, the “Plasma Concentrations” value (0.5 h after administration, rat 2♂) was 47.7 ng/mL and the “Plasma Concentrations” value (0.5 h after administration, rat 3♂) was 43.6 ng/mL. For the same compound, the “Plasma Concentrations” value (0.5 h after administration, rat 4♂) was 40.6 ng/mL, the “Plasma Concentrations” value (1 h after administration, Mean ± SD) was 43.9 ± 1.48 ng/mL and the “Plasma Concentrations” value (1 h after administration, rat 1♂) was 45.0 ng/mL. For the same compound, the “Plasma Concentrations” value (1 h after administration, rat 2♂) was 44.1 ng/mL, the “Plasma Concentrations” value (1 h after administration, rat 3♂) was 44.6 ng/mL and the “Plasma Concentrations” value (1 h after administration, rat 4♂) was 41.7 ng/mL. The “Plasma Concentrations” value (2 h after administration, Mean ± SD) was 23.3 ± 2.90 ng/mL, the “Plasma Concentrations” value (2 h after administration, rat 1♂) was 24.4 ng/mL and the “Plasma Concentrations” value (2 h after administration, rat 2♂) was 21.8 ng/mL. For the same compound, the “Plasma Concentrations” value (2 h after administration, rat 3♂) was 26.7 ng/mL, the “Plasma Concentrations” value (2 h after administration, rat 4♂) was 20.1 ng/mL and the “Plasma Concentrations” value (4 h after administration, Mean ± SD) was 7.74 ± 0.640 ng/mL. For the same compound, the “Plasma Concentrations” value (4 h after administration, rat 1♂) was 8.41 ng/mL, the “Plasma Concentrations” value (4 h after administration, rat 2♂) was 7.03 ng/mL and the “Plasma Concentrations” value (4 h after administration, rat 3♂) was 7.39 ng/mL. The “Plasma Concentrations” value (4 h after administration, rat 4♂) was 8.13 ng/mL, the “Plasma Concentrations” value (6 h after administration, Mean ± SD) was 2.77 ± 0.330 ng/mL and the “Plasma Concentrations” value (6 h after administration, rat 1♂) was 3.17 ng/mL. The “Plasma Concentrations” value (6 h after administration, rat 2♂) was 2.38 ng/mL, the “Plasma Concentrations” value (6 h after administration, rat 3♂) was 2.67 ng/mL and the “Plasma Concentrations” value (6 h after administration, rat 4♂) was 2.84 ng/mL. The “Plasma Concentrations” value (9 h after administration, Mean ± SD) was 1.18 ± 0.199 ng/mL, the “Plasma Concentrations” value (9 h after administration, rat 1♂) was 1.32 ng/mL and the “Plasma Concentrations” value (9 h after administration, rat 2♂) was 1.02 ng/mL. The “Plasma Concentrations” value (9 h after administration, rat 3♂) was 0.998 ng/mL, the “Plasma Concentrations” value (9 h after administration, rat 4♂) was 1.38 ng/mL and the “Plasma Concentrations” value (12 h after administration, Mean ± SD) was 0.720 ± 0.244 ng/mL. For the same compound, the “Plasma Concentrations” value (12 h after administration, rat 1♂) was 0.835 ng/mL, the “Plasma Concentrations” value (12 h after administration, rat 2♂) was 0.637 ng/mL and the “Plasma Concentrations” value (12 h after administration, rat 3♂) was 0.423 ng/mL. For the same compound, the “Plasma Concentrations” value (12 h after administration, rat 4♂) was 0.985 ng/mL, the “Plasma Concentrations” value (24 h after administration, Mean ± SD) was 0.186 ± 0.0899 ng/mL and the “Plasma Concentrations” value (24 h after administration, rat 1♂) was 0.313 ng/mL. For the same compound, the “Plasma Concentrations” value (24 h after administration, rat 2♂) was 0.101 ng/mL, the “Plasma Concentrations” value (24 h after administration, rat 3♂) was 0.170 ng/mL and the “Plasma Concentrations” value (24 h after administration, rat 4♂) was 0.161 ng/mL.
